Among the data in paper PMC4895818 are binding values, retold here.

Results are given in words; binding and its absence hold for the method and conditions named. In cells and extracts the contact can be indirect. Binding can be weak; no strength is given. For part of these data: Tags and fused reporters may be left off the sequences shown.

Experiment [1] concerns the target T1, 3 × Flag-PsAvh262 (Phytophthora sojae) (UniProt E0W5H5).
T1 sequence: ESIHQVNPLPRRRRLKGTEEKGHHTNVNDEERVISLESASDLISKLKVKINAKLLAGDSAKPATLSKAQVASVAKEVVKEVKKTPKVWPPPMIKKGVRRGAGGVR
Put plainly: co-IP; co-expression in N. benthamiana; 3 × Flag-PsAvh262 or mutant precipitated with anti-Flag agarose beads; co-precipitate detected by anti-GFP or anti-RFP blot.

Experiment [2] concerns the target T2, GST-PsAvh262 (Phytophthora sojae) (UniProt E0W5H5).
T2 sequence: T1 sequence
Put plainly: pull-down; semi-in vivo GST pull-down: GST-PsAvh262 from E. coli BL21 on glutathione-agarose beads, washed with PBS; extract of N. benthamiana leaves expressing GmBiP1-RFP or RFP added, 4 °C, 2 h; six washes with PBST; anti-RFP blot; only the target purified.

The target of experiment [3] is T3, GFP-PsAvh262 (N-terminal GFP-tagged PsAvh262 without the N-terminal secretion signal peptide 1-18 aa) (Phytophthora sojae) (UniProt E0W5H5).
T3 sequence: T1 sequence
Put plainly: co-IP; co-expression in N. benthamiana; 2 ml total protein extract with 20 ul GFP-Trap_A beads, 4 °C, 2 h; blot for RFP.

Experiment [4] deals with T4, PsAvh262 (construct of the experiment with OsBiP3, Supplementary Fig. 6c) (Phytophthora sojae) (UniProt E0W5H5).
T4 sequence: T1 sequence
Description: co-IP; PsAvh262 with OsBiP3, Supplementary Fig. 6c; named among the Co-IP assays; constructs and beads not given.

Experiment [5] addresses T5, PsAvh262-YFPN without its signal peptide (Phytophthora sojae) (UniProt E0W5H5).
T5 sequence: T1 sequence
Put plainly: split reporter; BiFC: PsAvh262-YFPN and SP-YFPC-GmBiP1-HDEL co-expressed in N. benthamiana by agroinfiltration; YFP fluorescence by confocal microscopy.

“GFP-GmBiP1 (GFP attached to the N terminus of the signal peptide) (soybean (Glycine max))”: the binding result in experiment [1] is recorded as “binds”.

For GFP-GmBiP2 (soybean (Glycine max)), the binding entry in experiment [1] is recorded as “binds”.

GFP-GmBiP3 (soybean (Glycine max)): the binding entry in experiment [1] is recorded as “binds”.

For the substance “GFP-GmBiP4 (GFP attached to the N terminus of the signal peptide) (soybean (Glycine max))”, the binding result in experiment [1] is given as “binds”.

Consider “GmBiP1-RFP (RFP fused to the C-terminal HDEL sequence of GmBiP1) (soybean (Glycine max))”, for which the binding entry in experiment [1] and in experiment [2] was “binds” throughout.

With NbBiP5-RFP (N. benthamiana), the binding result in experiment [3] is recorded as “binds”.

As to OsBiP3 from rice (Os02g02410), in experiment [4], the binding entry was “binds”.

As for “SP-YFPC-GmBiP1-HDEL (soybean (Glycine max))”, the binding result in experiment [5] was “binds”.
